PubChem BioAssay AID504764 – Drosophila RNAi Screening Center, 2011
Purpose: 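Genome-wide screen for regulators of Notch-driven gene expression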 (primary screen). Cells: Drosophila Kc167 cells. Knock-down reagent: long dsRNA against Drosophila genes. Timing: about 5 days (4 days dsRNA, then 24 h after transfection). Treatment: transfection of constitutively active membrane-tethered Notch lacking the extracellular domain, read 24 h later. Measurement: 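Light from a Notch-responsive E(spl)m3 luciferase reporter under active Notch, with control-promoter and no-Notch reporter wells to normalise; raw counts from paired wells a and b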. Scale: induced reporter light, run 1, well a and induced reporter light, run 1, well b: higher = more light from the Notch target reporter with active Notch; control promoter light, run 1, well a and control promoter light, run 1, well b: higher = more light from the viral control promoter (cell number, transfection, viability); uninduced reporter light, run 1, well a: higher = more light from the Notch target reporter without active Notch. Active means: 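Hit if the duplicate-averaged log2 ratio of induced to control-promoter light gives a plate-wise z beyond ±2, or induced to uninduced beyond ±1.8; weak-control or discordant-duplicate wells dropped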. Calls: active = modifier hit (raised or lowered Notch signal); inactive = not a hit.
The screen tested about 22,000 reagents; shown is an unselected part of those with a known target gene and a result. In the full data, 403 (1.9%) got an active call. 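Unnormalised raw counts per well; ratio z-scores behind the hit calls and whether each hit raises or lowers signal are not deposited.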 Reagents against one gene are numbered here. Names joined by + are all predicted targets of the reagent. Not stated in the record: the amount of reagent.

| Target gene | dsRNA no. | induced reporter light, run 1, well a | induced reporter light, run 1, well b | control promoter light, run 1, well a | control promoter light, run 1, well b | uninduced reporter light, run 1, well a | activity call |
| --- | --- | --- | --- | --- | --- | --- | --- |
| CG42268 | 1 | 1.44e5 | 1.19e5 | 1.70e5 | 1.65e5 | 7690 | inactive |
| CG42268 | 2 | 1.60e5 | 1.46e5 | 2.24e5 | 1.63e5 | 7515 | inactive |
| CG10914 | 1 | 32065 | 31765 | 35485 | 37155 | 3020 | inactive |
| mav (maverick) | 1 | 1.35e5 | 1.15e5 | 2.23e5 | 1.99e5 | 8128 | inactive |
| CG13465 | 1 | 1.91e5 | 2.04e5 | 2.54e5 | 1.82e5 | 8665 | inactive |
| rn (rotund) | 1 | 6330 | 7825 | 6520 | 3940 | 1755 | inactive |
| rn (rotund) | 2 | 48795 | 73260 | 59870 | 53755 | 4055 | inactive |
| rn (rotund) | 3 | 84575 | 1.06e5 | 79330 | 97690 | 7328 | inactive |
| rn (rotund) | 4 | 1.57e5 | 1.11e5 | 1.41e5 | 1.22e5 | 9655 | inactive |
| rn (rotund) | 5 | – | – | – | – | – | active |
| CG5397 | 1 | 2.02e5 | 2.18e5 | 2.41e5 | 2.52e5 | 18400 | inactive |
| CG11929 | 1 | 1.43e5 | 1.10e5 | 2.11e5 | 1.92e5 | 8878 | active |
| CG9801 | 1 | 1.30e5 | 1.19e5 | 99570 | 74580 | 10620 | inactive |
| CG15544 | 1 | 1.08e5 | 1.03e5 | 1.66e5 | 1.60e5 | 9895 | inactive |
| nonC (no-on-and-no-off transient C) | 1 | 72545 | 68510 | 92360 | 1.07e5 | 3915 | inactive |
| nonC (no-on-and-no-off transient C) | 2 | 1.36e5 | 1.41e5 | 3.60e5 | 3.17e5 | 10092 | active |
| Non2 (Novel nucleolar protein 2) | 1 | 80765 | 91185 | 1.44e5 | 2.06e5 | 7510 | inactive |
| Hacd2 (3-hydroxyacyl-CoA dehydratase 2) | 1 | 2.10e5 | 2.09e5 | 1.91e5 | 1.84e5 | 18460 | inactive |
| CG31464 | 1 | 1.30e5 | 1.37e5 | 95900 | 74125 | 10388 | inactive |
| CG15450 | 1 | 66040 | 72170 | 53845 | 63250 | 6815 | inactive |
| RhoGAP68F (Rho GTPase activating protein at 68F) | 1 | 1.27e5 | 98215 | 81020 | 40430 | 11455 | inactive |
| CG12849 | 1 | 1.67e5 | 1.31e5 | 1.63e5 | 1.55e5 | 10455 | inactive |
| Traf6 (TNF-receptor-associated factor 6) | 1 | 1.32e5 | 1.36e5 | 2.77e5 | 2.28e5 | 10545 | inactive |
| Polr2B (RNA polymerase II subunit B) | 1 | 23825 | 19830 | 17305 | 17160 | 3035 | inactive |
| CG10949 | 1 | 2.68e5 | 3.22e5 | 3.18e5 | 3.19e5 | 21070 | inactive |
| CG33271 | 1 | 2.11e5 | 1.31e5 | 1.75e5 | 1.79e5 | 9705 | inactive |
| CG2202 | 1 | 2.21e5 | 2.07e5 | 2.51e5 | 2.69e5 | 14505 | inactive |
| CG17974 | 1 | 54650 | 49205 | 48890 | 48690 | 2630 | inactive |
| sing (singles bar) | 1 | 71305 | 68675 | 98565 | 97925 | 11125 | inactive |
| PGRP-LB (Peptidoglycan recognition protein LB) | 1 | 1.36e5 | 1.16e5 | 86585 | 79680 | 9515 | inactive |
| hgo (homogentisate 1,2-dioxygenase) | 1 | 1.24e5 | 1.31e5 | 74440 | 1.06e5 | 16885 | inactive |
| CG7857 | 1 | 1.87e5 | 1.95e5 | 2.06e5 | 2.33e5 | 8315 | inactive |
| ttv (tout-velu) | 1 | 89430 | 89775 | 85280 | 1.02e5 | 9110 | inactive |
| rno (rhinoceros) | 1 | 95565 | 87865 | 1.28e5 | 1.39e5 | 5455 | inactive |
| Vtld + CG42529 | 1 | 1.57e5 | 1.27e5 | 1.06e5 | 1.20e5 | 9055 | inactive |
| meep | 1 | 1.31e5 | 1.51e5 | 1.30e5 | 1.37e5 | 9495 | inactive |
| Chs2 (Chitin synthase 2) | 1 | 1.40e5 | 1.11e5 | 98570 | 71075 | 13335 | inactive |
| ATP8 (retired record) | 1 | 82305 | 1.02e5 | 1.37e5 | 1.38e5 | 9695 | inactive |
| l(2)gl (lethal (2) giant larvae) | 1 | 1.85e5 | 1.63e5 | 2.67e5 | 3.08e5 | 13920 | inactive |
| eIF4G2 (eukaryotic translation initiation factor 4G2) | 1 | 2.11e5 | 1.93e5 | 2.29e5 | 2.53e5 | 16510 | inactive |
| CG15876 | 1 | 1.73e5 | 1.81e5 | 2.54e5 | 2.16e5 | 9725 | inactive |
| Mur2B (Mucin related 2B) | 1 | 1.40e5 | 1.39e5 | 2.92e5 | 3.17e5 | 9892 | inactive |
| Mur2B (Mucin related 2B) | 2 | 1.37e5 | 1.22e5 | 2.31e5 | 2.40e5 | 9190 | inactive |
| CG12768 | 1 | 69935 | 62175 | 65355 | 48930 | 5618 | inactive |
| CG13690 | 1 | 1.46e5 | 1.35e5 | 1.16e5 | 79165 | 10395 | inactive |
| bru3 (bruno 3) | 1 | 1.74e5 | 1.85e5 | 2.75e5 | 2.84e5 | 17392 | inactive |
| bru3 (bruno 3) | 2 | 1.52e5 | 1.70e5 | 1.10e5 | 1.34e5 | 13680 | inactive |
| bru3 (bruno 3) | 3 | 64030 | 49745 | 83180 | 69950 | 5000 | inactive |
| CG5250 | 1 | 1.86e5 | 1.81e5 | 2.24e5 | 2.27e5 | 12615 | inactive |
| bigmax | 1 | 1.80e5 | 2.30e5 | 3.21e5 | 3.36e5 | 15260 | inactive |
| Cul6 (Cullin 6) | 1 | 1.22e5 | 1.17e5 | 96165 | 82830 | 12805 | inactive |
| CG11248 | 1 | 1.00e5 | 1.22e5 | 63605 | 91400 | 10000 | inactive |
| atms (antimeros) | 1 | 1.47e5 | 1.62e5 | 91995 | 1.25e5 | 10630 | inactive |
| CG10126 | 1 | 1.35e5 | 1.67e5 | 98090 | 94835 | 10845 | inactive |
| Sesn (Sestrin) | 1 | 2.04e5 | 2.65e5 | 1.75e5 | 2.06e5 | 14645 | inactive |
| Sesn (Sestrin) | 2 | 2.16e5 | 2.11e5 | 2.17e5 | 1.83e5 | 14580 | inactive |
| Sesn (Sestrin) | 3 | 1.59e5 | 1.66e5 | 1.71e5 | 1.73e5 | 11475 | inactive |
| Taf13 (TBP-associated factor 13) | 1 | 50570 | 40070 | 23392 | 31140 | 2585 | inactive |
| cyst (cysts) | 1 | 1.58e5 | 1.89e5 | 1.56e5 | 1.68e5 | 15780 | inactive |
| Sap130 (Sin3A-associated protein 130) | 1 | 1.77e5 | 1.73e5 | 1.52e5 | 1.63e5 | 2610 | active |
| tsh (teashirt) | 1 | 47945 | 46865 | 46275 | 57600 | 3690 | inactive |
| CG15236 | 1 | 2.14e5 | 1.88e5 | 2.55e5 | 2.51e5 | 19610 | inactive |
| CG14659 | 1 | 1.09e5 | 1.07e5 | 1.43e5 | 1.11e5 | 9245 | inactive |
| CG14929 + CG4970 | 1 | 1.04e5 | 1.37e5 | 71940 | 81180 | 16215 | inactive |
| CG14929 + CG4970 | 2 | 1.45e5 | 1.41e5 | 75850 | 1.03e5 | 16328 | inactive |

An excerpt from above, showing only “induced reporter light, run 1, well b”:
Mur2B (Mucin related 2B) #2: 1.22e5
CG12768: 62175
CG13690: 1.35e5
bru3 (bruno 3) #1: 1.85e5
bru3 (bruno 3) #2: 1.70e5
bru3 (bruno 3) #3: 49745
CG5250: 1.81e5
bigmax: 2.30e5
Cul6 (Cullin 6): 1.17e5
CG11248: 1.22e5
